Laboratory results reported in the supplement of paper PMC12823440, “Inhibitors supercharge kinase turnover through native proteolytic circuits” (Nature, 2025).
Where a name gives a salt, the structure may show the parent alone. Some of the results follow. The calls rarely recur for the same compound in another form.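 Kinases, fused to nanoluciferase, were expressed in K562 cells; luminescence was measured every 4 h from 2 to 18 h as percent of control (DMSO = 100%, positive control = 0%). A time point is decreased if signal falls significantly (2 sigma). Hits were called by the authors by a rule that is not shown; the count of time points alone does not decide it.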

Amino acid sequences for entries named in this document (tags omitted). A change or cut given only in a name is not applied to a line headed by its entry.
UniProt P07947, whole entry, looked up: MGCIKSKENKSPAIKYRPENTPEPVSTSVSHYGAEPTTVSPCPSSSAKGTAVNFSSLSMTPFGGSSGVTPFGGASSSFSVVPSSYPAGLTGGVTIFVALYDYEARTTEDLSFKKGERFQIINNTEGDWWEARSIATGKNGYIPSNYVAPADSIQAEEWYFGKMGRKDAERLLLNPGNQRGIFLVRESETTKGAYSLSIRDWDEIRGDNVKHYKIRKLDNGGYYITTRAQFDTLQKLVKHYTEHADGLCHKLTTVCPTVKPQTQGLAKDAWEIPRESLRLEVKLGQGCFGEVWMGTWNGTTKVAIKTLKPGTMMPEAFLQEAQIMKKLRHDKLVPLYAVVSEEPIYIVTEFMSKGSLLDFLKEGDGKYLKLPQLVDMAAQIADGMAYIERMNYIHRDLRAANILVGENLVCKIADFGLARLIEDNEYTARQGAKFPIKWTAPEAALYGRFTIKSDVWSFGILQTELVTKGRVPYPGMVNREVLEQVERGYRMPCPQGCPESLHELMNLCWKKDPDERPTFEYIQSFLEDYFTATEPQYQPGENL
UniProt P43403: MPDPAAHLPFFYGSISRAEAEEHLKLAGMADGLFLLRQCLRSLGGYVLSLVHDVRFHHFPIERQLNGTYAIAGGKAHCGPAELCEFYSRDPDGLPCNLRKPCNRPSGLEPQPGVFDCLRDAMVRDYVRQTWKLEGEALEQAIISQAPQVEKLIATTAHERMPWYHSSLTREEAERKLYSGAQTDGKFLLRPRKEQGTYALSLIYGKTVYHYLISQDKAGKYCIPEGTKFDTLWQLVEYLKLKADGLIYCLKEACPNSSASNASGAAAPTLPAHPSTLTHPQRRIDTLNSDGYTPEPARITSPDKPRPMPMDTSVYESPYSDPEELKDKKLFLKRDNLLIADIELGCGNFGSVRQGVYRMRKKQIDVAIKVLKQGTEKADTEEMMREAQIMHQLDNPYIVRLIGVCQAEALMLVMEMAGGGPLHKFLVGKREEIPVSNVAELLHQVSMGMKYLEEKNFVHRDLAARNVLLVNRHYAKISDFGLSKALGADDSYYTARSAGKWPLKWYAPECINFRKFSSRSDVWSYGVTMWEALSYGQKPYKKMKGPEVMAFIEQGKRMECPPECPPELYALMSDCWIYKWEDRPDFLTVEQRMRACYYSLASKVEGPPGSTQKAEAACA
UniProt P11802: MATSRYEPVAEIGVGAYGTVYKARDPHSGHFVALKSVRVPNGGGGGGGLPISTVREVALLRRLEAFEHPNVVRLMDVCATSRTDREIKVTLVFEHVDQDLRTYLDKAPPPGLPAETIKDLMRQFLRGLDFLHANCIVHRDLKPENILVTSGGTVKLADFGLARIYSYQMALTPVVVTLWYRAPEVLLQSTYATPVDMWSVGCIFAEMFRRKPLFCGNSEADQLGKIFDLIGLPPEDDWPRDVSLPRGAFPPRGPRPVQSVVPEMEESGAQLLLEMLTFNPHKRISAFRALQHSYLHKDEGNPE
UniProt P50613: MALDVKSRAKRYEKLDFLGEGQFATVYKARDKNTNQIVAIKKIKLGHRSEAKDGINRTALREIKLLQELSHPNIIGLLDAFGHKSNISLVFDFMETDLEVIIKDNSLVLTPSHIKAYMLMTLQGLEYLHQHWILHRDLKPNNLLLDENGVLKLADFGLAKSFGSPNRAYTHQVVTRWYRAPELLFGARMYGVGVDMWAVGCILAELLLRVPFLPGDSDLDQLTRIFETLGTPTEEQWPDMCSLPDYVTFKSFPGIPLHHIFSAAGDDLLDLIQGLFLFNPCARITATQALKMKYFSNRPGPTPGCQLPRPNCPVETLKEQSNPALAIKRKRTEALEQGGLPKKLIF
UniProt P50750, whole entry: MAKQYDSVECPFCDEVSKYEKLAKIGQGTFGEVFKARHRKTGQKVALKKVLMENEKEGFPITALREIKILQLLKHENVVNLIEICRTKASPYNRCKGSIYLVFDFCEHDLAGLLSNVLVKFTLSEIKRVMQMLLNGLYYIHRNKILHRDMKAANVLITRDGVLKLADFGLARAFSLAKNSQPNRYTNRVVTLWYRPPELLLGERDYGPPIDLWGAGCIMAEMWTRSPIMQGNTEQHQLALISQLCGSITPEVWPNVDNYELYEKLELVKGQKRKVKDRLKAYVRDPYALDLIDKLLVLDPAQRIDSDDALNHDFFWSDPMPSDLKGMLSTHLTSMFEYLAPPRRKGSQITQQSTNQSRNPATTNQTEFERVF

Experiments:
Conditions in all cases: K562; 2-18 h
[1] = target: YES1 (UniProt P07947); test: number of time points (of 5) at which kinase-Nluc abundance scored as decreased, DMSO-normalised (count); higher = more persistent destabilization
[2] = target: ZAK (UniProt Q9NYL2); test: as above
[3] = target: ZAP70 (UniProt P43403); test: as above
[4] = target: CDK4 (UniProt P11802); test: number of time points (of 4; 2 h point missing) at which kinase-Nluc abundance scored as decreased, DMSO-normalised (count); higher = more persistent destabilization
[5] = target: CDK7 (UniProt P50613); test: as above
[6] = target: CDK9 (UniProt P50750); test: as above

Measured: number of time points

O=C(NCc1cccc(O)c1)c1cc2cc(F)ccc2[nH]1 (10 µM)
0: all assays above

O=C(Nc1ncc(SCCN2CCCC2)s1)[C@]1(c2ccc(S(=O)(=O)C3CC3)cc2)C[C@H]1C1CCCCC1 [Globalagliatin] (2.5 µM)
0: all assays above

C[C@@H](N)COc1ccc(-c2cnc3ccc(N[C@H](C)c4cccc(F)c4)nn23)cc1 [Taletrectinib] (2.5 µM)
0: all assays above

Cn1cc(-c2ccc3ncc(Cc4ccc5ncccc5c4)n3n2)cn1 (10 µM)
0: all assays above

O=c1cc(N2CCOCC2)oc2c1ccc1ccccc12 (2 µM)
0: all assays above

O=C1NC(=O)C(c2ccccc2[N+](=O)[O-])=C1Nc1ccc(O)c(Cl)c1 (10 µM)
0: all assays above

CNCCOc1ccccc1C(C)(C)Nc1nccn(-c2cc(C(=O)NC3CC3)ccc2C)c1=O [p38α inhibitor 2] (10 µM)
0: all assays above

CCOc1cc(C(=O)N2CCC(N3CCN(C)CC3)CC2)ccc1Nc1ncc2c(n1)N(S(C)(=O)=O)c1ccccc1C(=O)N2C (10 µM)
0: all assays above

CCn1c(-c2nonc2N)nc2c(C#CCO)ncc(OCCCN)c21 [AKT Kinase Inhibitor] (10 µM)
0: all assays above

CCCCCC1CC1CC1CC1CCCCCCCC(=O)O (configuration not stated) (10 µM)
0: all assays above

CCn1c2ccccc2c2cc(Nc3ccnc(NCCCN4CCOCC4)n3)ccc21 (2.5 µM)
0: all assays above

COc1ccc(-c2cnc3c(-c4cccc5ncccc45)cnn3c2)cc1 (10 µM)
0: all assays above

C[C@@H]1CN(Cc2cn[nH]c2-c2ccc(C#N)cc2)CCN1c1ccc(C(F)(F)F)cn1 (2.5 µM)
0: all assays above

CC1=C(C(=O)Nc2ccc3[nH]ncc3c2)C(c2ccc(F)c(C(=O)NCc3ccccn3)c2)NC(=O)N1 (configuration not stated) (10 µM)
0: all assays above

Cc1ccc(Nc2c(C(N)=O)cnc3cc(-c4ccncc4)ccc23)cc1C [cFMS Receptor Inhibitor II] (10 µM)
0: all assays above

O=C(CC(c1ccccc1)C(C(=O)O)C(=O)O)c1ccc(C(F)(F)F)cc1 (configuration not stated) (10 µM)
0: all assays above

NC(=O)c1ccc2nc(-c3ccc(C4(N)CCC4)cc3)c(-c3ccccc3)n2n1 (10 µM)
0: all assays above

O=C(O)[C@]1(Cc2cccc(Nc3nccs3)n2)CC[C@@H](Oc2cccc(Cl)c2F)CC1 (2.5 µM)
2: [5]
1: [1]
0: all other assays above

CC(C)=CCC/C(C)=C/CC/C(C)=C/CSc1ccccc1C(=O)O [Salirasib] (10 µM)
0: all assays above

Nc1n[nH]c(N)c1N=Nc1ccc(O)cc1 (10 µM)
0: all assays above

C=CC(=O)Nc1cccc(Oc2nc(Nc3ccc(N4CCN(C)CC4)cc3)nc3ccsc23)c1 [Olmutinib] (2.5 µM)
0: all assays above

CC(=O)Nc1nc(C)c(-c2ccc(Cl)c(S(=O)(=O)NCCO)c2)s1 (10 µM)
0: all assays above

Cc1cccc(-c2[nH]c(C(C)(C)C)nc2-c2ccc3c(c2)OCO3)n1 (2.5 µM)
0: all assays above

CC(C)Cn1cc(C#N)c2cc(Oc3ccc(NC(=O)[C@@H]4CCCN4)cc3)ccc21 (10 µM)
0: all assays above

CCS(=O)(=O)c1ccc(Oc2cc(O[C@@H](C)CO)cc(C(=O)Nc3ccn(C)n3)c2)cn1 (10 µM)
0: all assays above

Cc1c(C(=O)Nc2ccc(Oc3ccnc4cc(OCC(C)(C)O)ccc34)c(F)c2)c(=O)n(-c2ccccc2)n1C [Ningetinib Tosylate] (10 µM)
1: [4]
3: [5]
2: [6]
0: all other assays above

CNS(=O)(=O)C[C@H]1CC[C@H](N(C)c2[nH]cnc3nccc2-3)CC1 [Oclacitinib (maleate)] (10 µM)
0: all assays above

CNC[C@@H](NC(=O)c1ccc(-c2nc([C@H]3CC[C@H](O)[C@@H](F)C3)cnc2N)cc1F)c1cc(F)cc(Br)c1 [Rineterkib] (10 µM)
0: all assays above

CCCCNc1ncc2c(-c3ccc(CN4CCN(C)CC4)cc3)cn([C@H]3CC[C@H](O)CC3)c2n1 [UNC2025 (hydrochloride)] (2.5 µM)
1: [1]
0: all other assays above

COc1cc(Nc2nc3ccccc3nc2NS(=O)(=O)c2ccc(NC(=O)c3ccc(C)c(OC)c3)cc2)cc(OC)c1 (10 µM)
0: all assays above

Cn1sc(=O)n(Cc2ccccc2)c1=O (10 µM)
0: all assays above

CN(C)CCCNc1ccn2ncc(-c3ccc4c(c3)OCO4)c2n1 (10 µM)
0: all assays above

2 entries picked at random from the list so far:
CCCCNc1ncc2c(-c3ccc(CN4CCN(C)CC4)cc3)cn([C@H]3CC[C@H](O)CC3)c2n1 [UNC2025 (hydrochloride)] (2.5 µM)
1: [1]
0: all other assays above

COc1cc(Nc2nc3ccccc3nc2NS(=O)(=O)c2ccc(NC(=O)c3ccc(C)c(OC)c3)cc2)cc(OC)c1 (10 µM)
0: all assays above
